Measured values: the supplement of paper PMC10849652
This is one part of the list.

Amino acid sequences for entries named in this document (tags omitted). A change or cut given only in a name is not applied to a line headed by its entry.
UniProt P24468: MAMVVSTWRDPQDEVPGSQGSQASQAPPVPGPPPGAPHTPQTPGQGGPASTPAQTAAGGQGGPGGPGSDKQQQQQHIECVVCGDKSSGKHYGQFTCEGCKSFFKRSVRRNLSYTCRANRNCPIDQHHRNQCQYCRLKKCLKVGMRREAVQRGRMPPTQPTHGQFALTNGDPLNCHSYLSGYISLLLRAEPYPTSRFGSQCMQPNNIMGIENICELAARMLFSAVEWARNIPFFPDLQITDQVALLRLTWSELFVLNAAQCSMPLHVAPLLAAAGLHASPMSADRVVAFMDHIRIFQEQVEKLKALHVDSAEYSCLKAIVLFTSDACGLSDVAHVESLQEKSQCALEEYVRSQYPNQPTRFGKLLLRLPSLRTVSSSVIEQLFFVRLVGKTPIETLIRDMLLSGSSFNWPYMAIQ
UniProt Q9UNZ2: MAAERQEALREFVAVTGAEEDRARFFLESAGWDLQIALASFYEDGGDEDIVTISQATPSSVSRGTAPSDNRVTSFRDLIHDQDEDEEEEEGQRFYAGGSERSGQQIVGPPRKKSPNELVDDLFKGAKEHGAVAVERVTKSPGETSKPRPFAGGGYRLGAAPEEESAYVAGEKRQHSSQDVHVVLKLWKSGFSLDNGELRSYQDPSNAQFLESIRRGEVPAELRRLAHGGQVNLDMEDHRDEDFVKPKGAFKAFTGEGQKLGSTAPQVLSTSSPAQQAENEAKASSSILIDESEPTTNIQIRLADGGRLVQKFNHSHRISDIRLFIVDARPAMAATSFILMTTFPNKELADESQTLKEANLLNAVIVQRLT
UniProt Q9H9Q4: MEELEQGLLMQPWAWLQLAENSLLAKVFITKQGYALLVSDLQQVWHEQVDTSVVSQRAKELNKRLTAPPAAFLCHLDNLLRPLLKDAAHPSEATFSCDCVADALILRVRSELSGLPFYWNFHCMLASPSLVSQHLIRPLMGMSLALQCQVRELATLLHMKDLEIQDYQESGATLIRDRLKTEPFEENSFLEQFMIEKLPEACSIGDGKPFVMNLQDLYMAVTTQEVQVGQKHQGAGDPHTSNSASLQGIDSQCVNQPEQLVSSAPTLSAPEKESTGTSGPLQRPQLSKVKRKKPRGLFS
UniProt Q9BYG3: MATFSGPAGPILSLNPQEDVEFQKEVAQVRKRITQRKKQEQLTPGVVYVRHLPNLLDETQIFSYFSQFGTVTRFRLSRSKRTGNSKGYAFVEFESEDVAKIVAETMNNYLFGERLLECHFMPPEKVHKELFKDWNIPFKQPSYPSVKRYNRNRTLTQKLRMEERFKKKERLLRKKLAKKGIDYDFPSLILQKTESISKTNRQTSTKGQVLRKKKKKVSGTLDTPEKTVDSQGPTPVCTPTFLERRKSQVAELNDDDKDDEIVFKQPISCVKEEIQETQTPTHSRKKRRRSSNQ
UniProt Q9UHY1: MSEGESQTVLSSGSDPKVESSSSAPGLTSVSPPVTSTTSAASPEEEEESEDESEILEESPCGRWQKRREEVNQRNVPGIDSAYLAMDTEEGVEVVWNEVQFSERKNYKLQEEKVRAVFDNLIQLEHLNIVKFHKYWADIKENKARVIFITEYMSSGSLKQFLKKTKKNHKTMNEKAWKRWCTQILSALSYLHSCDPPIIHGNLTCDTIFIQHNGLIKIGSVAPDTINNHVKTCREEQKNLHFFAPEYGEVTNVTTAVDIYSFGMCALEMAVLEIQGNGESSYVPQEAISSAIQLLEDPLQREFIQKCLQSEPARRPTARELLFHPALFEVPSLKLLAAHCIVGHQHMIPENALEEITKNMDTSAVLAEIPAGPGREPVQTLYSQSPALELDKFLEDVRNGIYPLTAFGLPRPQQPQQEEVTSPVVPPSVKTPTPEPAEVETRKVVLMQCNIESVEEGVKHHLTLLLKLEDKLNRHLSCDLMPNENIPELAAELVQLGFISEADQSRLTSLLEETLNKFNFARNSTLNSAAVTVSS
UniProt Q9GZT8: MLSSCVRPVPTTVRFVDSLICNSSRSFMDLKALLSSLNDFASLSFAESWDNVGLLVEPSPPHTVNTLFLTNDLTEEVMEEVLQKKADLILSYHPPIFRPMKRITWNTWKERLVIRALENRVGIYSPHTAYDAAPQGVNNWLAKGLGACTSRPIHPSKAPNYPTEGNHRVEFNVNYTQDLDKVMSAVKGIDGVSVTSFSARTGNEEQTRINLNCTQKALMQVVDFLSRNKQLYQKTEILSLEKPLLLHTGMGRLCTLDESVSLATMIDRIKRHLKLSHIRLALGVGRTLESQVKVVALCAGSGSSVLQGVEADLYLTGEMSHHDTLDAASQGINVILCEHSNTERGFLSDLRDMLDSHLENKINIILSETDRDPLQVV
UniProt Q15653: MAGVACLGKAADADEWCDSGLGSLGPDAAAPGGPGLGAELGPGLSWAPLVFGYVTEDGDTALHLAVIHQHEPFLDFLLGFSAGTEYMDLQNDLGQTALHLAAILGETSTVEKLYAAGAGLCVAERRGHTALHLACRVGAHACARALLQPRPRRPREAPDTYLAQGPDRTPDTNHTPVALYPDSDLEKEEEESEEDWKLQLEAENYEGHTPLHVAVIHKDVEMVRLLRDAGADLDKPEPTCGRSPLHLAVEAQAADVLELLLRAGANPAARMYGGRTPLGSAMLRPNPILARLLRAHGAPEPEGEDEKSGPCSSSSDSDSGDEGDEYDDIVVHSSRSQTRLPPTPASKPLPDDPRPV
UniProt Q9UMX5: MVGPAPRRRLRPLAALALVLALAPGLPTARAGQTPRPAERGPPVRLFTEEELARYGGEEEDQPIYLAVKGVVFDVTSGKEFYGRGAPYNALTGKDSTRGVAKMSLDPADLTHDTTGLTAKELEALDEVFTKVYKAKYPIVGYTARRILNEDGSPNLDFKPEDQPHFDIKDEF
UniProt Q5JPE7: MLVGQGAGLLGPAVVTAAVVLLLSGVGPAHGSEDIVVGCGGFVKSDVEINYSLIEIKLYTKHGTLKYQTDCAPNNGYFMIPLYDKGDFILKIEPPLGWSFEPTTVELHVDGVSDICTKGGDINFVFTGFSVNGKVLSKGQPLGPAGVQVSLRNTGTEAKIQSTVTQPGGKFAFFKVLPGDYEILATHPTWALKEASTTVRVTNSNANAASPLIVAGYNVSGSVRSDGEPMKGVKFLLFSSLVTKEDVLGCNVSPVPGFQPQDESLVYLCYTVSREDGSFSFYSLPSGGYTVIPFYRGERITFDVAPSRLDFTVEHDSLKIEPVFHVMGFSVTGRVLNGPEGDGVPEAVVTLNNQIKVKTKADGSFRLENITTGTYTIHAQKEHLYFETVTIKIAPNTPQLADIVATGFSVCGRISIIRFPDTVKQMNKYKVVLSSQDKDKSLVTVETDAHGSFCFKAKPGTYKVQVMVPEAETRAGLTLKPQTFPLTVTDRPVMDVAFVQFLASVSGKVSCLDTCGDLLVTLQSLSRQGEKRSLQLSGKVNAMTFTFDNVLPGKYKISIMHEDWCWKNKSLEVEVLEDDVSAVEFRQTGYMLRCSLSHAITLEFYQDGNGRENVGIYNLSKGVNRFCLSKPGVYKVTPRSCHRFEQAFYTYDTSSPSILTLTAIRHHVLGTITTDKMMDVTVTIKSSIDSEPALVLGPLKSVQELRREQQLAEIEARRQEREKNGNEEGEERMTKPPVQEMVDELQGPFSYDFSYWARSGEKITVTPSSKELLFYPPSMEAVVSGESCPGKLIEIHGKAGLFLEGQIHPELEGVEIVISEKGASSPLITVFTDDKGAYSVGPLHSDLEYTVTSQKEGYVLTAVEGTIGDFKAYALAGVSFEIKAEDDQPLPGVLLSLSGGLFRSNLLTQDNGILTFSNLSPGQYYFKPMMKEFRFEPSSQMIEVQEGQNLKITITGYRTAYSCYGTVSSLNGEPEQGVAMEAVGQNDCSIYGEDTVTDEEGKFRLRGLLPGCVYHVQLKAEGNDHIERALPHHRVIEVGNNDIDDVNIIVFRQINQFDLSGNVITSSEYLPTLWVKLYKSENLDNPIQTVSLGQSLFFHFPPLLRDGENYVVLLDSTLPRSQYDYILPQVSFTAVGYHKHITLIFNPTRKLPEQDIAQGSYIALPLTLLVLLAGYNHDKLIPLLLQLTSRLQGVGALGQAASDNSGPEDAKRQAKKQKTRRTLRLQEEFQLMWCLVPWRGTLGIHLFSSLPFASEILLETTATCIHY
UniProt P18615, whole entry, looked up: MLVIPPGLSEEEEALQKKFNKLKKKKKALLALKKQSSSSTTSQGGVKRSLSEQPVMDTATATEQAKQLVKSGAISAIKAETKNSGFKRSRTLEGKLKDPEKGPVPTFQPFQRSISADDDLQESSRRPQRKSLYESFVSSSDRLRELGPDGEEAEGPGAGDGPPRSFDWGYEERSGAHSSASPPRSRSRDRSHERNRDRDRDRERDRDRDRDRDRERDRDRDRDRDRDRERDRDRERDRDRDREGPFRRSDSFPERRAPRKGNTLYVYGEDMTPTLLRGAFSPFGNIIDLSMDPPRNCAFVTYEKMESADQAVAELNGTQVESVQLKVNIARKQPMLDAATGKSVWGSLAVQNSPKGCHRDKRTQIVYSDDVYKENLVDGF
UniProt P08651, whole entry, looked up: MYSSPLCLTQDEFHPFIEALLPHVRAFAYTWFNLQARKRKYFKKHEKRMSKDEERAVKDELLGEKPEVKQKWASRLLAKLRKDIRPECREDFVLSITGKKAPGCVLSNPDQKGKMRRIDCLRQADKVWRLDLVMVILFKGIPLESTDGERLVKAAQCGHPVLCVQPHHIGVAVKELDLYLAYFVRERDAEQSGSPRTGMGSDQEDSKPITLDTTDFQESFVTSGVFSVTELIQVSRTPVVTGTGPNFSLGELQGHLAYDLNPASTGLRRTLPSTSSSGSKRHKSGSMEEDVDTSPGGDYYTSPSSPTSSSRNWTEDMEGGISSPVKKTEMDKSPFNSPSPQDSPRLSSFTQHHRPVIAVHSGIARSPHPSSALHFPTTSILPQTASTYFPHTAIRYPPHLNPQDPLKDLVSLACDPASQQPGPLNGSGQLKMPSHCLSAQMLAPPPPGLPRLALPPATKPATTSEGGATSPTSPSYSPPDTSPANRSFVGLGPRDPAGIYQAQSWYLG
UniProt Q9UMS0: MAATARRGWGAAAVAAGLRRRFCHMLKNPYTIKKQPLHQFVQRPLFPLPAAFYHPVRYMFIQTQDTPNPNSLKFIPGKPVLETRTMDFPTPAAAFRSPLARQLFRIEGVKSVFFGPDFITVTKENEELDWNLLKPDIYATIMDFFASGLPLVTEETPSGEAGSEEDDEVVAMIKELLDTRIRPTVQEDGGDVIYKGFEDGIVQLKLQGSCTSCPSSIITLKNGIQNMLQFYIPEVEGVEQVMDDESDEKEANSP
UniProt Q96TA1: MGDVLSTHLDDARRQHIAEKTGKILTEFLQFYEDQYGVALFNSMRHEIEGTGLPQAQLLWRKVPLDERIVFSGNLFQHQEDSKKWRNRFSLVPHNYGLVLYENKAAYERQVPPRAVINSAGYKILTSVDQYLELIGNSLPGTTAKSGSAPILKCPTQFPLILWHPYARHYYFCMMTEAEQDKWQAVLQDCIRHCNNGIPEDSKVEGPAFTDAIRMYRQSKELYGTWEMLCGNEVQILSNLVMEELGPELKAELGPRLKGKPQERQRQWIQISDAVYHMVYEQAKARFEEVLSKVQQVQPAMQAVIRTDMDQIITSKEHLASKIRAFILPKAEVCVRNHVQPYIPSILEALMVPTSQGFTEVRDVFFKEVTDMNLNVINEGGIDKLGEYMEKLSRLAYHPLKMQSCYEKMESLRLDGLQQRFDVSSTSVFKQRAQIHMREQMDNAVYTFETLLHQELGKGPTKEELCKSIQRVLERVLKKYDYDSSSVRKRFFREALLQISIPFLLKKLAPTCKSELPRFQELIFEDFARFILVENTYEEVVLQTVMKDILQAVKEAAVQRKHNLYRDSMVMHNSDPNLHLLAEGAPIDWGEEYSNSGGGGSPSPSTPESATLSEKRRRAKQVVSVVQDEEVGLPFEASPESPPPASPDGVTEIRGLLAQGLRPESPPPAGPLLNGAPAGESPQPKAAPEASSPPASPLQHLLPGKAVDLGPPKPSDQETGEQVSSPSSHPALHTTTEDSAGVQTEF
UniProt Q9BPW8: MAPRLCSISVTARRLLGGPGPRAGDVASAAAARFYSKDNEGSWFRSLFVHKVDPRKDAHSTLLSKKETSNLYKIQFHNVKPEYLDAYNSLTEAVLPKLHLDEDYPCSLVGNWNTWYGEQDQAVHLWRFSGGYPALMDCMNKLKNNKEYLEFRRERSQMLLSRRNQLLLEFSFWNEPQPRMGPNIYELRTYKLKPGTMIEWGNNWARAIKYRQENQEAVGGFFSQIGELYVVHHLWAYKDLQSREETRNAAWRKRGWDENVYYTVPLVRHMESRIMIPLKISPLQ

Key:
Experiment in all cases: log2 fold change, soluble protein after heating vs DMSO (PISA); higher = thermal stabilisation; K562 cells, 10 uM, 30 min; active = over 0.2 and 3.5 SD of the protein, either way, in both replicates (recomputed)
[1] = compound: CS(=O)(=O)c1ccc(-c2cnc(N)c(C(=O)Nc3ccccc3)n2)cc1
Outline: (§1)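 K562 cells at 2×10^6 cells/mL were treated with 10 μM compound for 30 min. Aliquots were heated for 3 min across 48°C-58°C, pooled, and extracted in PBS with 0.5% NP-40 at 4°C; soluble protein was the supernatant after 21,000xg for 90 min. Soluble protein was quantified by TMTpro 16plex LC-MS/MS with channel sums equalised, and reported as log2 fold change in thermal stability against DMSO controls, with values from duplicates.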

crizotinib = compound: C[C@@H](Oc1cc(-c2cnn(C3CCNCC3)c2)cnc1N)c1c(Cl)ccc(F)c1Cl [crizotinib]
Outline: as §1

[2] = compound: C[C@@H]1COCCN1C2=NC(=NC(=C2)C3(CC3)S(=O)(=O)C)C4=C5C=CNC5=CC=C4
Outline: as §1

[3] = compound: C[C@H](C1=CC=C(C=C1)C(=O)NC2=C3C=CNC3=NC=C2)N
Outline: as §1

duvelisib = compound: C[C@H](Nc1ncnc2nc[nH]c12)c1cc2cccc(Cl)c2c(=O)n1-c1ccccc1 [duvelisib]
Outline: as §1

gandotinib = compound: Cc1cc(Nc2cc(CN3CCOCC3)c3nc(C)c(Cc4ccc(Cl)cc4F)n3n2)n[nH]1 [gandotinib]
Outline: as §1

tozasertib = compound: Cc1cc(Nc2cc(N3CCN(C)CC3)nc(Sc3ccc(NC(=O)C4CC4)cc3)n2)n[nH]1 [tozasertib]
Outline: as §1

[4] = compound: Cc1cc(SCc2sc(-c3ccc(C(F)(F)F)cc3)nc2C)ccc1OCC(=O)O
Outline: as §1

doramapimod = compound: Cc1ccc(-n2nc(C(C)(C)C)cc2NC(=O)Nc2ccc(OCCN3CCOCC3)c3ccccc23)cc1 [doramapimod]
Outline: as §1

ispinesib = compound: Cc1ccc(C(=O)N(CCCN)[C@@H](c2nc3cc(Cl)ccc3c(=O)n2Cc2ccccc2)C(C)C)cc1 [ispinesib]
Outline: as §1

bafetinib = compound: Cc1ccc(NC(=O)c2ccc(CN3CC[C@H](N(C)C)C3)c(C(F)(F)F)c2)cc1Nc1nccc(-c2cncnc2)n1 [bafetinib]
Outline: as §1

[5] = compound: Cc1cccc(CC(=O)N2CCc3c2ccc(-c2cn(C)c4ncnc(N)c24)c3F)n1
Outline: as §1

nilotinib = compound: Cc1cn(-c2cc(NC(=O)c3ccc(C)c(Nc4nccc(-c5cccnc5)n4)c3)cc(C(F)(F)F)c2)cn1 [nilotinib]
Outline: as §1

[6] = compound: Cc1nc(Nc2n[nH]c3c2CN(C(=O)N[C@H](CN(C)C)c2ccccc2)C3(C)C)c2sccc2n1
Outline: as §1

dasatinib = compound: Cc1nc(Nc2ncc(C(=O)Nc3c(C)cccc3Cl)s2)cc(N2CCN(CCO)CC2)n1 [dasatinib]
Outline: as §1

[7] = compound: Cc1ncc(-c2ccnc(Nc3ccc(S(C)(=O)=O)cc3)n2)n1C(C)C
Outline: as §1

[8] = compound: Cn1cc(-c2ccc3c(c2)CCN3C(=O)Cc2cccc(C(F)(F)F)c2)c2c(N)ncnc21
Outline: as §1

[9] = compound: Cn1cc(-c2ccc3nnc(C(F)(F)c4ccc5ncccc5c4)n3n2)cn1
Outline: as §1

tipifarnib = compound: Cn1cncc1[C@@](N)(c1ccc(Cl)cc1)c1ccc2c(c1)c(-c1cccc(Cl)c1)cc(=O)n2C [tipifarnib]
Outline: as §1

mubritinib = compound: FC(F)(F)c1ccc(/C=C/c2nc(COc3ccc(CCCCn4ccnn4)cc3)co2)cc1 [mubritinib]
Outline: as §1

Measured: log2 fold change

NR2F2 (UniProt P24468)
inactive: [1] 0.038 | crizotinib 0.081 | [2] 0.038 | [3] -0.054 | duvelisib 0.078 | gandotinib -0.008 | tozasertib 0.036 | [4] 0.084 | doramapimod -0.022 | ispinesib 0.039 | bafetinib 0.021 | [5] 0.016 | nilotinib 0.045 | [6] -0.105 | dasatinib 0.003 | [7] -0.028 | [8] 0.036 | [9] 0.045 | tipifarnib -0.036 | mubritinib 0.051

NSFL1C isoform 5 (UniProt Q9UNZ2)
inactive: [1] -0.021 | crizotinib 0.014 | [2] 0.049 | [3] -0.008 | duvelisib 0.036 | gandotinib -0.072 | tozasertib 0.032 | [4] 0 | doramapimod 0.012 | ispinesib 0.04 | bafetinib -0.005 | [5] 0.014 | nilotinib -0.002 | [6] -0.031 | dasatinib -0.024 | [7] -0.001 | [8] 0.006 | [9] -0.016 | tipifarnib -0.038 | mubritinib 0.047

NF1 (UniProt P21359)
inactive: [1] 0.058 | crizotinib 0 | [2] 0.015 | [3] -0.018 | duvelisib 0.069 | gandotinib -0.052 | tozasertib 0 | [4] 0.021 | doramapimod 0 | ispinesib 0.063 | bafetinib -0.054 | [5] -0.198 | nilotinib -0.083 | [6] 0.095 | dasatinib 0.094 | [7] -0.139 | [8] 0.075 | [9] 0.007 | tipifarnib 0.239 | mubritinib 0.006

NHEJ1 (UniProt Q9H9Q4)
inactive: [1] -0.001 | crizotinib -0.122 | [2] 0.02 | [3] -0.16 | duvelisib -0.096 | gandotinib -0.063 | tozasertib 0.13 | [4] 0.082 | doramapimod 0.098 | ispinesib 0.091 | bafetinib 0.055 | [5] 0.156 | nilotinib 0.007 | [6] 0.014 | dasatinib -0.152 | [7] 0.015 | [8] 0.08 | [9] 0 | tipifarnib -0.065 | mubritinib 0.1

NIFK (UniProt Q9BYG3)
inactive: [1] 0.023 | crizotinib -0.032 | [2] -0.428 | [3] 0.328 | duvelisib 0.053 | gandotinib 0.347 | tozasertib -0.017 | [4] -0.012 | doramapimod 0.021 | ispinesib -0.072 | bafetinib 0.103 | [5] -0.091 | nilotinib -0.222 | [6] 0.189 | dasatinib -0.05 | [7] 0.238 | [8] -0.087 | [9] -0.084 | tipifarnib 0.084 | mubritinib -0.283

NRBP1 (UniProt Q9UHY1)
inactive: [1] 0.032 | crizotinib 0.016 | [2] 0.022 | [3] -0.076 | duvelisib -0.017 | gandotinib -0.039 | tozasertib 0.067 | [4] -0.004 | doramapimod 0.008 | ispinesib 0.035 | bafetinib -0.043 | [5] 0.016 | nilotinib -0.002 | [6] -0.029 | dasatinib 0.07 | [7] 0.039 | [8] -0.057 | [9] 0.059 | tipifarnib 0.017 | mubritinib 0.056

NIF3L1 (UniProt Q9GZT8)
inactive: [1] 0.062 | crizotinib 0.078 | [2] -0.02 | [3] -0.032 | duvelisib 0.016 | gandotinib 0.082 | tozasertib -0.03 | [4] -0.052 | doramapimod 0.006 | ispinesib 0.042 | bafetinib -0.197 | [5] -0.046 | nilotinib -0.019 | [6] 0.005 | dasatinib 0.018 | [7] -0.011 | [8] 0.004 | [9] 0.011 | tipifarnib 0.029 | mubritinib 0.04

NFKBIB (UniProt Q15653)
inactive: [1] 0.066 | crizotinib -0.008 | [2] 0.053 | [3] -0.014 | duvelisib 0.002 | gandotinib -0.038 | tozasertib 0.075 | [4] 0.06 | doramapimod -0.013 | ispinesib -0.055 | bafetinib -0.059 | [5] -0.001 | nilotinib 0.044 | [6] -0.236 | dasatinib -0.061 | [7] -0.074 | [8] 0.013 | [9] 0.009 | tipifarnib 0.014 | mubritinib 0.049

NENF (UniProt Q9UMX5)
inactive: [1] -0.023 | crizotinib 0.086 | [2] 0.058 | [3] 0.004 | duvelisib 0.062 | gandotinib 0.005 | tozasertib -0.002 | [4] -0.028 | doramapimod -0.002 | ispinesib 0.009 | bafetinib -0.053 | [5] -0.089 | nilotinib -0.015 | [6] 0.028 | dasatinib 0.061 | [7] -0.015 | [8] 0.013 | [9] 0.054 | tipifarnib 0.015 | mubritinib -0.005

NOMO2 (UniProt Q5JPE7)
inactive: [1] -0.006 | crizotinib 0.001 | [2] -0.021 | [3] 0.017 | duvelisib -0.013 | gandotinib -0.026 | tozasertib 0.019 | [4] 0.017 | doramapimod 0.02 | ispinesib -0.048 | bafetinib -0.009 | [5] -0.01 | nilotinib -0.009 | [6] 0.032 | dasatinib -0.018 | [7] -0.037 | [8] -0.019 | [9] 0.017 | tipifarnib -0.016 | mubritinib -0.024

NELFE isoform 3 (UniProt P18615)
inactive: [1] -0.051 | crizotinib 0 | [2] -0.006 | [3] -0.025 | duvelisib 0.037 | gandotinib 0.065 | tozasertib -0.004 | [4] -0.021 | doramapimod -0.041 | ispinesib 0.048 | bafetinib -0.127 | [5] -0.076 | nilotinib -0.033 | [6] -0.212 | dasatinib -0.019 | [7] 0.036 | [8] -0.041 | [9] 0.016 | tipifarnib 0.035 | mubritinib 0.034

NFIC (UniProt P08651)
inactive: [1] -0.02 | crizotinib 0.034 | [2] -0.007 | [3] 0.032 | duvelisib 0.1 | gandotinib 0.079 | tozasertib 0.009 | [4] -0.084 | doramapimod 0.036 | ispinesib -0.052 | bafetinib 0.005 | [5] 0.008 | nilotinib 0.013 | [6] 0.045 | dasatinib 0.119 | [7] -0.051 | [8] 0.004 | [9] -0.037 | tipifarnib 0.042 | mubritinib 0

NFU1 (UniProt Q9UMS0)
inactive: [1] -0.024 | crizotinib 0.059 | [2] 0.083 | [3] -0.026 | duvelisib 0.064 | gandotinib -0.018 | tozasertib 0.039 | [4] -0.01 | doramapimod 0.009 | ispinesib 0.031 | bafetinib -0.011 | [5] -0.031 | nilotinib 0.024 | [6] 0.015 | dasatinib 0.029 | [7] -0.009 | [8] 0.091 | [9] 0.046 | tipifarnib 0 | mubritinib 0

NIBAN2 (UniProt Q96TA1)
inactive: [1] 0.022 | crizotinib 0.017 | [2] 0.065 | [3] -0.05 | duvelisib 0.022 | gandotinib -0.05 | tozasertib -0.048 | [4] -0.017 | doramapimod -0.021 | ispinesib 0.048 | bafetinib -0.004 | [5] -0.001 | nilotinib 0 | [6] -0.003 | dasatinib -0.048 | [7] -0.02 | [8] 0.022 | [9] 0.018 | tipifarnib -0.03 | mubritinib 0.065

NIPSNAP1 (UniProt Q9BPW8)
inactive: [1] 0.056 | crizotinib 0.035 | [2] 0.146 | [3] -0.084 | duvelisib 0.049 | gandotinib 0.117 | tozasertib -0.046 | [4] 0.079 | doramapimod -0.052 | ispinesib 0.131 | bafetinib 0.005 | [5] -0.047 | nilotinib 0.13 | [6] -0.041 | dasatinib 0.027 | [7] -0.014 | [8] 0.093 | [9] 0.028 | tipifarnib -0.083 | mubritinib 0.056
